Measurements published in PubChem BioAssay AID540276 (National Center for Advancing Translational Sciences (NCATS), 2011).
Out of some 300,000 compounds screened, about 5,400 (1.8%) were called active. Inconclusive means that the source gave no clear call. Such entries were picked first, then a sample of the others. Calls come from the whole dose curve; tested in HEK293 cells. A potency beside an inconclusive call is a rough fit, not a confirmed value. Non-standard residues stand in square brackets, D forms with d. Residues, ends and D or L forms follow the SMILES beside them. pGlu = O=C1CC[CH](C(=O)O)N1

Test: qHTS for inhibitors of binding or entry into cells for Marburg Virus
Details: Marburg virus pseudotyped entry inhibition, cell reporter; series mostly up to 37.8 µM
Potency is the fitted concentration of half-maximal effect.

Structure (SMILES) | Potency
O=C(CSc1ncccn1)N1CCCc2ccccc21 | inactive
CC(=O)c1c(C)[nH]c(C(=O)OCC(=O)N(Cc2ccccc2)C(C)(C)C)c1C | inconclusive: 35.5 µM [inhibitor, partial curve, poor fit]
O=C(NCCCN1CCCC1=O)c1sc2ccccc2c1Cl | inactive
COc1ccc(S(=O)(=O)Nc2cc(Sc3ncn[nH]3)c(O)cc2C)cc1 | inactive
COc1ccc(S(=O)(=O)Nc2c(O)c3ccccc3oc2=O)cc1 | inactive
O=C1c2ccccc2CC1(Cc1ccccc1)Cc1ccccc1 | inactive
Cc1ccsc1C(=O)NC(C)c1ccc2c(c1)OCO2 (centres undefined) | inactive
COc1ccccc1-c1nc(COc2ccc(Cl)cc2Cl)no1 | inactive
O=C(NCCc1c[nH]c2ccccc12)c1ccccc1 | inactive
O=C(OCCN(C1=NS(=O)(=O)c2ccccc21)c1ccccc1Cl)c1ccc(Cl)cc1 | inconclusive: 14.6 µM [inhibitor, single point]
O=C(c1cccc(COc2ccc(Cl)cc2Cl)c1)N1CCN(c2ccccn2)CC1 | inconclusive: 29.1 µM [inhibitor, single point]
O=C(NNS(=O)(=O)c1ccc2ccccc2c1)C1CCN(Cc2ccccc2)CC1 | inconclusive: 12.6 µM [inhibitor, single point]
c1csc(-c2nn3c(C4COc5ccccc5O4)nnc3s2)c1 (centres undefined) | inactive
OCc1cn(-c2ccccc2)nc1-c1ccc(-c2nn(-c3ccccc3)cc2CO)cc1 | inconclusive: 3.55 µM [inhibitor, full curve, poor fit]
C/C(Cc1ccccc1)=N\NC(=O)CNC(=O)c1ccc(Br)cc1 | inactive
COc1ccc(CN2CCCCC2C)c(C)c1C (centres undefined) | inconclusive: 0.73 µM [inhibitor, full curve, poor fit]
CC1(C)NC(=O)N(CCCOc2ccc(Br)cc2Cl)C1=O | inactive
NC(=O)c1ccsc1NC(=O)COC(=O)CSc1ccc(Cl)cc1 | inactive
Cc1[nH]n(-c2ccccc2)c(=O)c1C(C[N+](=O)[O-])c1ccc(Br)cc1 (centres undefined) | inactive
COc1cccc(-c2cc(C(F)(F)F)n3nc(N)nc3n2)c1 | inactive
COc1cc(/C=N/O)ccc1OCc1ccccc1Cl | inconclusive: 20 µM [inhibitor, single point]
Cc1ccc(C(=O)N(CC(=O)NC2CCCC2)c2ccc(F)cc2)s1 | inconclusive: 14.1 µM [inhibitor, single point]
COc1ccc(N2CCN(C(=O)c3ccc4nc(N5CCCCC5)sc4c3)CC2)cc1 | inactive
Cc1[nH]cnc1CSCCN | inactive
C/C(=N/Nc1nc(-c2ccc(Cl)cc2)cs1)c1cccs1 | inconclusive: 3.55 µM [activator, single point]

Structure (SMILES) | Potency
Cc1cccc(C(=O)Oc2ccc(/C=N/NC(=O)c3ccccc3O)cc2)c1 | inconclusive: 25.1 µM [activator, single point]
O=c1[nH]c(/C=C2\C=Nc3ccccc32)c(O)n1Cc1ccccc1F | inconclusive: 35.5 µM [inhibitor, single point]
O=C(CSc1nnc(-c2ccc(S(=O)(=O)N3CCCC3)cc2)o1)NCC1CCCO1 (centres undefined) | inconclusive: 1 µM [activator, partial curve, poor fit]
Cc1csc(NC(=O)CSC2=NCCS2)n1 | inactive
CCN(CC(=O)NCc1ccc(Cl)cc1)C(=O)CSc1ccc(F)cc1 | inactive
COc1ccc(OCC(=O)Nc2nnc(-c3ccco3)s2)cc1 | inconclusive: 2.51 µM [inhibitor, partial curve, poor fit]
Cc1noc(C)c1C(=O)Nc1nc(-c2ccccc2Cl)cs1 | inconclusive: 0.126 µM [inhibitor, full curve, poor fit]
CCc1cc(C(=O)Nc2ccc(S(=O)(=O)NC3=NCCCCC3)cc2)sc1C | inactive
Cc1ccc(Oc2nc3c(C)cccn3c(=O)c2/C=C(\C#N)C(N)=O)cc1 | inactive
Cc1oc2ccc(O)c(CN3CCCCCC3)c2c1C(=O)Nc1cccc(Cl)c1C | inconclusive: 7.08 µM [inhibitor, partial curve, poor fit]
CC(=O)OCCn1c(Br)nc2c1c(=O)[nH]c(=O)n2C | inactive
COc1ccc(C)c2sc(N3CCCC3)nc12 | inconclusive: 6.51 µM [inhibitor, single point]
O=C(Nc1ccc(NC(=O)c2ccco2)nc1)c1ccco1 | inconclusive: 2.82 µM [inhibitor, full curve]
Cc1ccc(N2C(N)=C(C#N)C(c3cccnc3)C3=C2CCCC3=O)cc1 (centres undefined) | inactive
COc1ccc(-c2csc(NC(=O)C3CC(=O)N(Cc4ccccc4)C3)n2)cc1OC (centres undefined) | inconclusive: 35.5 µM [inhibitor, single point]
O=C1NC(=S)S/C1=C/c1ccc(N2CCOCC2)o1 | inconclusive: 0.501 µM [inhibitor, full curve, poor fit]
COc1ccc(NC(=O)Cn2nnc(-c3ccccc3NC(=O)c3cccs3)n2)cc1 | inconclusive: 1.26 µM [inhibitor, partial curve, poor fit]
O=C(NC1(C(F)(F)F)NC(=O)N(CCc2ccccc2)C1=O)c1ccccc1Cl (centres undefined) | inactive
NS(=O)(=O)c1ccc(N/N=C/c2ccccn2)c([N+](=O)[O-])c1 | inconclusive: 29.1 µM [inhibitor, single point]
CCCCn1c(=N)n(CC(O)c2ccccc2)c2ccccc21 (centres undefined) | active: 13 µM
CC(C)N(C[C@@H]1CSCCS(=O)(=O)N1)C1CCCCC1 | inconclusive: 0.28 µM [inhibitor, full curve, poor fit]
CCCc1[nH]nc2c1C(c1ccc(OC(=O)c3ccco3)cc1)C(C#N)=C(N)O2 (centres undefined) | inconclusive: 25.9 µM [activator, single point]
Cc1cc(C=O)c(C)c2c1[nH]c1ccccc12 | inactive
COc1ccc(C(=O)NC(CC(=O)O)c2cc([N+](=O)[O-])ccc2Cl)cc1 (centres undefined) | inactive
COC(=O)c1ccc(CN2CCN(Cc3ccccc3)CC2)cc1 | inconclusive: 25.9 µM [inhibitor, single point]

Structure (SMILES) | Potency
COc1cccc(/C=N/n2c(-c3n[nH]c4c3CCC4)n[nH]c2=S)c1OC | inconclusive: 0.501 µM [activator, full curve, poor fit]
CCCc1ccc(OC(=O)CSc2nnc(-c3cccs3)o2)cc1 | inconclusive: 3.55 µM [inhibitor, single point]
Cc1ccc(CNC(=O)CN(c2cccc([N+](=O)[O-])c2)S(=O)(=O)c2ccccc2)cc1 | inconclusive: 0.447 µM [activator, partial curve, poor fit]
Clc1ccc(-c2csc3ncnc(Cl)c23)cc1 | inactive
COc1cccc(/C=C2/CN(C)CC3=C2OC(N)=C(C#N)C3c2cccc(OC)c2)c1 (centres undefined) | inconclusive: 35.5 µM [inhibitor, single point]
Cc1ccc(N2C(=O)NC(=O)C3(Cc4ccccc4N4CCN(c5ccccc5)CC43)C2=O)cc1 (centres undefined) | inactive
O=C(Nc1ccc2c(c1)CCC2)c1cccc(S(=O)(=O)N2CCN(c3ccccc3)CC2)c1 | inconclusive: 14.6 µM [inhibitor, single point]
CCCCN(C)C(=O)C1CCN(Cc2ccc(OCc3ccccc3)cc2)CC1 | inconclusive: 22.4 µM [inhibitor, single point]
COc1cc(/C=N/NC(=S)NC2CC3CC2C2C=CCC32)ccc1O (centres undefined) | inconclusive: 35.5 µM [inhibitor, single point]
CSc1ccccc1C(=O)Nc1cc2c(cc1C(=O)O)OCCCO2 | inactive
O=c1[nH]c(=O)n(Cc2ccccc2)c2nc(-c3ccc(Oc4ccc(F)cc4)c([N+](=O)[O-])c3)n(CCO)c12 | inconclusive: 6.31 µM [inhibitor, partial curve, poor fit]
Cc1ccc(OCCSc2nc3ccc(NC(=O)c4ccc5c(c4)OCO5)cc3s2)cc1 | inactive
CCCCCCn1c(N2CCC(C)CC2)nc2c1c(=O)[nH]c(=O)n2C | inactive
CC(C)CC(NC(=O)C(CO)NC(=O)C1CCC(=O)N1)C(N)=O (stereo not drawn) ([pGlu]-Ser-Leu-NH2; configuration not given here) | inconclusive: 6.31 µM [activator, single point]
CC(C)(C)c1ccc(/C=N/Nc2nncn2N)cc1 | inconclusive: 20 µM [inhibitor, single point]
O=C(Cn1nnc(-c2cccs2)n1)NCc1ccccc1 | inactive
Cc1ccc(S(=O)(=O)N2CCN(S(C)(=O)=O)C2)cc1 | inactive
CN1CCc2cc3c(c4c2C1Cc1ccccc1-4)OCO3 (centres undefined) | inconclusive: 35.5 µM [inhibitor, single point]
CC(OC(=O)c1ccc(-c2ccc(O)cc2)cc1)C(=O)NC1CCCCC1C (centres undefined) | inconclusive: 15.8 µM [inhibitor, single point]
COc1ccc(C(=O)N2CC(=O)Nc3ccc(C)cc3C2c2ccccc2)cc1OC (centres undefined) | inconclusive: 6.31 µM [inhibitor, single point]
COc1cc(/C=C2\COC/C(=C\c3ccc(O)c(OC)c3)C2=O)ccc1O | inconclusive: 7.94 µM [inhibitor, partial curve, poor fit]
Cc1cccc(C(C)(C)C)c1OCCOCCN1CCCC1 | inconclusive: 23.1 µM [inhibitor, single point]
Cc1cc(=O)[nH]c(SCc2nc3ccc([N+](=O)[O-])cc3[nH]2)n1 | inactive
O=C(O)c1cccc(NC(=O)c2cn(-c3ccccc3)nc2-c2ccc(F)cc2)c1 | inconclusive: 0.398 µM [inhibitor, partial curve, poor fit]

Looked up one by one from above (3):
Structure (SMILES) | Potency
COc1ccc(C(=O)N2CC(=O)Nc3ccc(C)cc3C2c2ccccc2)cc1OC (centres undefined) | inconclusive: 6.31 µM [inhibitor, single point]
COc1cccc(/C=N/n2c(-c3n[nH]c4c3CCC4)n[nH]c2=S)c1OC | inconclusive: 0.501 µM [activator, full curve, poor fit]
CCCCN(C)C(=O)C1CCN(Cc2ccc(OCc3ccccc3)cc2)CC1 | inconclusive: 22.4 µM [inhibitor, single point]
